Reference: PubChem BioAssay AID234 (DTP/NCI, 2004)
The list does not hold the whole screen: it gathers tests that were run many times, whatever their T/C, doses with no T/C, and many T/C values between a quarter and a half above the control. Further doses and runs are listed elsewhere. T/C gives the treated animals as a percentage of the vehicle group. Schedules are NCI's codes, read here as Q, the interval in days (D) or hours (H), X, the number of doses. Some schedules carry Z or #; the key to these is not given. Some entries give survivors of the animals treated and no T/C: the source holds a T/C of zero for them, seemingly a mark for toxic or unscored doses. Survivors were counted at the toxicity check, usually on the fifth day, unless a day is given; later deaths do not show. Signs of the kind (2×) give the number of equal values in this list. Some entries hold several experiments; the values are given in rising order.

Test system: C3AKF1 mice, hamster liver cystadenocarcinoma s.c., tumor weight T/C
Test: NCI In Vivo Anticancer Drug Screen. Data for tumor model Cystadenocarcinoma, Liver (No. 1) (Hamster) (subcutaneous) in C3AKF1 (CHKRF1) mice
Conditions: T/C endpoint: mean tumor weight, higher T/C = larger tumour; for T/C: evaluated on day 15
Protocol: The antitumor activity of compounds was measured in mice bearing transplantable tumors. Survival or tumor size were measured and the results are expressed as the measurement made in the treated group (T) divided by the measurement made in the vehicle treated control group (C). The tumor model used in this assay is Cystadenocarcinoma, Liver (No. 1) (Hamster) (subcutaneous) in C3AKF1 (CHKRF1) mice

[1] = dose: 80.0 mg/kg/injection, schedule: Q01DX010 (ip), vehicle: carboxymethylcellulose (CMC)
[2] = dose: 500.0 mg/kg/injection, schedule: Q01DX010 (ip), vehicle: carboxymethylcellulose (CMC)
[3] = dose: 1000.0 mg/kg/injection, schedule: Q01DX010 (ip), vehicle: carboxymethylcellulose (CMC)
[4] = dose: 160.0 mg/kg/injection, schedule: Q01DX010 (ip), vehicle: carboxymethylcellulose (CMC)
[5] = dose: 31.0 mg/kg/injection, schedule: Q#A X010 (ip), vehicle: carboxymethylcellulose (CMC)
[6] = dose: 60.0 mg/kg/injection, schedule: Q01DX010 (ip), vehicle: carboxymethylcellulose (CMC)
[7] = dose: 120.0 mg/kg/injection, schedule: Q01DX010 (ip), vehicle: carboxymethylcellulose (CMC)
[8] = dose: 50.0 mg/kg/injection, schedule: Q01DX010 (ip), vehicle: carboxymethylcellulose (CMC)
[9] = dose: 800.0 mg/kg/injection, schedule: Q01DX010 (ip), vehicle: carboxymethylcellulose (CMC)
[10] = dose: 125.0 mg/kg/injection, schedule: Q01DX010 (ip), vehicle: carboxymethylcellulose (CMC)
[11] = dose: 250.0 mg/kg/injection, schedule: Q01DX010 (ip), vehicle: carboxymethylcellulose (CMC)

[I][Hg][CH2]C1COCC([CH2][Hg][I])O1.[I][Hg][CH2]C1COCC([CH2][Hg][I])O1 (configuration not stated)
survivor count [1]: 0 of 6

O=S(=O)(O)C(Nc1ccccc1)c1ccccc1 (configuration not stated)
survivor count (dose: 800.0 mg/kg/injection, schedule: Q01DX010 (ip), vehicle: water): 2 of 6

NC(=O)c1ccc(NC(=O)CCC(=O)Nc2ccc(C(N)=O)cn2)nc1
survivor count (dose: 5.0 mg/kg/injection, schedule: Q01DX010 (ip), vehicle: carboxymethylcellulose (CMC)): 0 of 7
survivor count (dose: 10.0 mg/kg/injection, schedule: Q01DX010 (ip), vehicle: carboxymethylcellulose (CMC)): 0 of 7

Nc1nc(SCc2ccccc2)c2ncn(C3CCCC3)c2n1
survivor count [2]: 3 of 6
survivor count (dose: 750.0 mg/kg/injection, schedule: Q01DX010 (ip), vehicle: carboxymethylcellulose (CMC)): 0 of 6
T/C [3]: 127 % of control

Cn1c(=O)c2[nH]c(CCCc3nc4c([nH]3)c(=O)n(C)c(=O)n4C)nc2n(C)c1=O
survivor count [1]: 2 of 6
survivor count [4]: 3 of 6

S=c1nc[nH]c2c1ncn2C1CCCO1 (configuration not stated)
survivor count (dose: 100.0 mg/kg/injection, schedule: Q01DX010 (ip), vehicle: carboxymethylcellulose (CMC)): 3 of 6

C=CCn1c(=O)n(CC=C)c(=O)n(CC=C)c1=O
survivor count (dose: 180.0 mg/kg/injection, schedule: Q01DX010 (ip), vehicle: saline): 2 of 6

CCCCCCCCCCCCn1c(C)nc2ccccc21
survivor count (dose: 1.0 mg/kg/injection, schedule: Q01DX010 (ip), vehicle: carboxymethylcellulose (CMC)): 3 of 6
T/C (dose: 4.0 mg/kg/injection, schedule: Q01DX010 (ip), vehicle: carboxymethylcellulose (CMC)): 134 % of control

COc1ccc(-c2c(CC(=O)O)c3cc(OC)ccc3n2Cc2ccc(Cl)cc2)cc1
T/C [3]: 142 % of control

O=C1C=CC(=O)O1 (tested in a mixture with another compound)
survivor count (dose: 7.5 mg/kg/injection, schedule: Q#A X010 (ip), vehicle: carboxymethylcellulose (CMC)): 3 of 6
survivor count (dose: 7.5 mg/kg/injection, schedule: Q#A X020 (ip), vehicle: carboxymethylcellulose (CMC)): 3 of 6
survivor count (dose: 15.0 mg/kg/injection, schedule: Q#A X020 (ip), vehicle: carboxymethylcellulose (CMC)): 1 of 6
survivor count (dose: 15.5 mg/kg/injection, schedule: Q#A X010 (ip), vehicle: carboxymethylcellulose (CMC)): 0 of 6 and 2 of 6
T/C [5]: 131 % of control
survivor count [5]: 0 of 6, 1 of 6, 2 of 6
survivor count (dose: 62.5 mg/kg/injection, schedule: Q#A X010 (ip), vehicle: carboxymethylcellulose (CMC)): 0 of 6, 1 of 6, 3 of 6
survivor count (dose: 125.0 mg/kg/injection, schedule: Q#A X010 (ip), vehicle: carboxymethylcellulose (CMC)): 0 of 6 (2×) and 2 of 6
survivor count (dose: 250.0 mg/kg/injection, schedule: Q#A X010 (ip), vehicle: carboxymethylcellulose (CMC)): 0 of 6 (3×)

O=C1C=CC(=Nc2ccc(O)c3ncccc23)c2cccnc21
survivor count (dose: 12.5 mg/kg/injection, schedule: Q01DX010 (ip), vehicle: carboxymethylcellulose (CMC)): 1 of 6
survivor count (dose: 25.0 mg/kg/injection, schedule: Q01DX010 (ip), vehicle: carboxymethylcellulose (CMC)): 0 of 6

CCCCCCCCCCCCCS
survivor count (dose: 200.0 mg/kg/injection, schedule: Q01DX010 (ip), vehicle: carboxymethylcellulose (CMC)): 0 of 6

COC(=O)[C@@H]1c2cc3c(c(O)c2[C@@H](OC2OC(C)C(OC)C(C)(OC)C2OC)C[C@]1(C)O)C(=O)c1c(O)cc2c(c1C3=O)O[C@H]1O[C@]2(C)[C@H](O)[C@@H](N(C)C)[C@@H]1O (some centres not stated)
survivor count (dose: 0.5 mg/kg/injection, schedule: Q01DX010 (ip), vehicle: saline): 3 of 6
survivor count (dose: 1.0 mg/kg/injection, schedule: Q01DX010 (ip), vehicle: saline): 0 of 6
survivor count (dose: 2.0 mg/kg/injection, schedule: Q01DX010 (ip), vehicle: saline): 0 of 6

CCn1cnc2c(=S)nc(N)[nH]c21
survivor count [6]: 0 of 6
survivor count [7]: 0 of 6

O=C1N(Cl)C(=O)C(c2ccc(Cl)cc2)(c2ccc(Cl)cc2)N1Cl
survivor count [7]: 2 of 6

CCCn1cnc2c(SCc3ccccc3Cl)nc(N)nc21
T/C [8]: 131 % of control
survivor count [9]: 4 of 7

Cn1cnc([N+](=O)[O-])c1Sc1nc(N)nc2c1ncn2C1OC(CO)C(O)C1O (configuration not stated)
T/C (dose: 15.0 mg/kg/injection, schedule: Q01DX010 (ip), vehicle: carboxymethylcellulose (CMC)): 136 % of control
survivor count (dose: 30.0 mg/kg/injection, schedule: Q01DX010 (ip), vehicle: carboxymethylcellulose (CMC)): 3 of 6
survivor count [6]: 0 of 6

O=C(Nc1ccc(C2=NCCN2)cc1)c1ccc(C(=O)Nc2ccc(C3=NCCN3)cc2)c(NC(=O)c2ccc(C(=O)Nc3cc(C(=O)Nc4ccc(C5=NCCN5)cc4)ccc3C(=O)Nc3ccc(C4=NCCN4)cc3)cc2)c1
T/C [10]: 126 % of control
survivor count [2]: 2 of 6

CC(C)=CC1C(C(=O)OCc2ccc(C)cc2C)C1(C)C (configuration not stated)
survivor count [2]: 3 of 6

CN(C)CCCN1c2ccccc2Sc2ccc(C(F)(F)F)cc21
survivor count (dose: 25.0 mg/kg/injection, schedule: Q01DX010 (ip), vehicle: saline): 2 of 6
survivor count (dose: 50.0 mg/kg/injection, schedule: Q01DX010 (ip), vehicle: saline): 0 of 6
survivor count (dose: 100.0 mg/kg/injection, schedule: Q01DX010 (ip), vehicle: saline): 0 of 6

CCC(=O)NC1=C(N2CC2)C(=O)C(NC(=O)CC)=C(N2CC2)C1=O
survivor count (dose: 2.4 mg/kg/injection, schedule: Q01DX010 (ip), vehicle: saline): 2 of 7
survivor count (dose: 4.8 mg/kg/injection, schedule: Q01DX010 (ip), vehicle: saline): 0 of 7

CC(Cl)CN(Cc1cc(O)c(CN(CC(C)Cl)CC(C)Cl)cc1O)CC(C)Cl (configuration not stated)
survivor count [10]: 1 of 6
survivor count [11]: 0 of 6
survivor count [2]: 0 of 6

Cc1cc(N)c2cc(NC(=O)CCCCCCCCC(=O)Nc3ccc4nc(C)cc(N)c4c3)ccc2n1
survivor count [11]: 0 of 6

CCCCCCCCCCCC[n+]1cccc2ccccc21
survivor count (dose: 2.0 mg/kg/injection, schedule: Q01DX010 (ip), vehicle: carboxymethylcellulose (CMC)): 0 of 6

CCCC(=O)NC1=C(N2CC2)C(=O)C(NC(=O)CCC)=C(N2CC2)C1=O
survivor count (dose: 1.7 mg/kg/injection, schedule: Q01DX010 (ip), vehicle: saline): 2 of 7
survivor count (dose: 4.0 mg/kg/injection, schedule: Q01DX010 (ip), vehicle: saline): 0 of 5
survivor count (dose: 6.0 mg/kg/injection, schedule: Q01DX010 (ip), vehicle: saline): 0 of 7

Nc1ccc2ccccc2c1N=Nc1ccccc1
survivor count [11]: 3 of 6
survivor count [2]: 0 of 6

CCC[CH2][Sn]([CH2]CCC)([CH2]CCC)[O]C(=O)CC[S][Sn]([CH2]CCC)([CH2]CCC)[CH2]CCC
survivor count (dose: 48.0 mg/kg/injection, schedule: Q01DX010 (ip), vehicle: saline): 1 of 7

Clc1ncnc2c1ncn2C1CCCO1 (configuration not stated)
T/C [8]: 129 % of control
survivor count [9]: 0 of 6
survivor count (dose: 1600.0 mg/kg/injection, schedule: Q01DX010 (ip), vehicle: carboxymethylcellulose (CMC)): 0 of 6

CCOC(=O)Sc1ncnc2nc[nH]c12
survivor count (dose: 112.0 mg/kg/injection, schedule: Q01DX010 (ip), vehicle: carboxymethylcellulose (CMC)): 3 of 6

CCOC(=O)C(Cc1ccc(N(CCCl)CCCl)cc1)NC=O (configuration not stated)
survivor count [1]: 1 of 6
survivor count [4]: 0 of 6
